We go through 33 targets from the supplement of paper PMC10849652.

Chains of the proteins cited; added tags and fusions are not shown. Lines headed by an entry give the natural chain unless they say otherwise; changes in a name come on top.
UniProt P41162: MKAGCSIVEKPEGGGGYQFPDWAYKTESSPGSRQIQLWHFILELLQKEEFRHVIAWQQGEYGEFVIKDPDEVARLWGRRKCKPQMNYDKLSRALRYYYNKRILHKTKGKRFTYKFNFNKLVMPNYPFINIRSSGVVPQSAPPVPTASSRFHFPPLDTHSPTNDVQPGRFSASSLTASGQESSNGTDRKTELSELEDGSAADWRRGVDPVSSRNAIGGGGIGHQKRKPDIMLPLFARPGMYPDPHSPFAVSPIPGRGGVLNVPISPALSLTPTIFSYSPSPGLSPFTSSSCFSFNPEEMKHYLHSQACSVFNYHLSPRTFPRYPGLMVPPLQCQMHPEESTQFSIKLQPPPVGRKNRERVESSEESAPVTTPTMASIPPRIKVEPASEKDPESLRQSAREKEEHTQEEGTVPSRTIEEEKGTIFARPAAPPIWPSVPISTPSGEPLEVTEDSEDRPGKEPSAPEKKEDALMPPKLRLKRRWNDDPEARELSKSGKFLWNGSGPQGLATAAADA
UniProt Q8IW50: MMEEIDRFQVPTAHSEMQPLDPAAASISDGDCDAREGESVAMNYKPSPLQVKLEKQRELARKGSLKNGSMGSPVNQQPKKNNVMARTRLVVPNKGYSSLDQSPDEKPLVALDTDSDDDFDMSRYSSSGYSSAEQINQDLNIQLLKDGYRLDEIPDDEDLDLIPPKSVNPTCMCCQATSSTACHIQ
UniProt P16930: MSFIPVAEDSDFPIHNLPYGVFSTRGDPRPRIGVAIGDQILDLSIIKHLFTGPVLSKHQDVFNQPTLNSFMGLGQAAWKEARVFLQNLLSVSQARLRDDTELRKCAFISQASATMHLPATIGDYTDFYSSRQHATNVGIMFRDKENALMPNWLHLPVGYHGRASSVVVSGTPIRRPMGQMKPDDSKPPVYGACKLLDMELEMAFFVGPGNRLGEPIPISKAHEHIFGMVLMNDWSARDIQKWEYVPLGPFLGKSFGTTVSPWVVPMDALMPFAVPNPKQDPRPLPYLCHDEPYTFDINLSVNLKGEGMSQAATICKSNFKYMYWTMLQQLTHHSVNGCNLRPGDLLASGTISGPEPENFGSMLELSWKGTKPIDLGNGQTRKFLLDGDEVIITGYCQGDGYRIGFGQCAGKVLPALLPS
UniProt Q56NI9: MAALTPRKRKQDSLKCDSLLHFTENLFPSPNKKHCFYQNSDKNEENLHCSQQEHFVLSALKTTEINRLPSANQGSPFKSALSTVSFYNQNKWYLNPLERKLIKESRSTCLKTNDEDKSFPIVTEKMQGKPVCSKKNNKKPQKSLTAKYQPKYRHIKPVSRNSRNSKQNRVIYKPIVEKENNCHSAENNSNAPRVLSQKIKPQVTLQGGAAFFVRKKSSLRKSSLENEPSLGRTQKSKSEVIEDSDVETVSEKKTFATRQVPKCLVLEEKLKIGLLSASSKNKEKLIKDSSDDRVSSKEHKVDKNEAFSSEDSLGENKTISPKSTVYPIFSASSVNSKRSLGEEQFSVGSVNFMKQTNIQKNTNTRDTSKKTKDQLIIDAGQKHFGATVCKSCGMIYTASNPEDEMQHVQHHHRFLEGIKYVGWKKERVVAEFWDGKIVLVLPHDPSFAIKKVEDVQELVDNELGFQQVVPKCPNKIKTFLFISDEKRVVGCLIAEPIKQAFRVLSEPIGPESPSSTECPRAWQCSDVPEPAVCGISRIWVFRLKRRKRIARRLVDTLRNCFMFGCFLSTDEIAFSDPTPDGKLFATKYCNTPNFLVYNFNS
UniProt P41212: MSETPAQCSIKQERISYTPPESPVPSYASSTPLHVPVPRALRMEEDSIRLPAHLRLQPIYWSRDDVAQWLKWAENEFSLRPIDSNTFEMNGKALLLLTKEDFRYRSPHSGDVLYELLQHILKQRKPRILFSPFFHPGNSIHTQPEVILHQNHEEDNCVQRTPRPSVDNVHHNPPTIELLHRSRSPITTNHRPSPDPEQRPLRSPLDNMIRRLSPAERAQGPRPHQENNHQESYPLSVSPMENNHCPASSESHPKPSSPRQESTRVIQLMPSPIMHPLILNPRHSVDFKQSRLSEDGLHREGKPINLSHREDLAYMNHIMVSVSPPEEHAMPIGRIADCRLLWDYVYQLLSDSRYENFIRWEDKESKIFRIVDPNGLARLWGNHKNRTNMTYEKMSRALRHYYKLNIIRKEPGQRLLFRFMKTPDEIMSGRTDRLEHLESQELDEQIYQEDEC
UniProt B1AK53: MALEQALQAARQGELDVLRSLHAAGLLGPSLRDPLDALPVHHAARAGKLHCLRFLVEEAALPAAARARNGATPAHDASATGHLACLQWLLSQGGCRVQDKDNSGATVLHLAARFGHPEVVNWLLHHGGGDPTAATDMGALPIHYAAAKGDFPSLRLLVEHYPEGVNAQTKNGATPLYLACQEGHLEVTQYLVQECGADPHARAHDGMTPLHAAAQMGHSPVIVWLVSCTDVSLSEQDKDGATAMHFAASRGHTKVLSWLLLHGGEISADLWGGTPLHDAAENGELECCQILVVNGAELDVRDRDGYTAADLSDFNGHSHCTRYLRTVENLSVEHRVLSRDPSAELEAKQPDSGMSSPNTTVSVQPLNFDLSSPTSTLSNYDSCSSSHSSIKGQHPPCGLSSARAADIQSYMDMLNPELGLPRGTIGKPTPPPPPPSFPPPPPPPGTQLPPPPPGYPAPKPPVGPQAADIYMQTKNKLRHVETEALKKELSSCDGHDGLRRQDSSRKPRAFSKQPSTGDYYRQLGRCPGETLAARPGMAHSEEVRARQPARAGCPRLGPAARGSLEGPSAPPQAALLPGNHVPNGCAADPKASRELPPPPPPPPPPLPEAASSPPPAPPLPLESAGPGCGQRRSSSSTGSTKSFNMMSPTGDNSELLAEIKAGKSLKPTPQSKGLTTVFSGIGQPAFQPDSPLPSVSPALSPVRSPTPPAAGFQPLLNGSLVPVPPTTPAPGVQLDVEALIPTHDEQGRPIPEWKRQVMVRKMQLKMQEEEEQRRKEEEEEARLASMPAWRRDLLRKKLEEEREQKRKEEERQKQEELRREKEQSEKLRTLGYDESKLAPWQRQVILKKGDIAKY
UniProt O95718: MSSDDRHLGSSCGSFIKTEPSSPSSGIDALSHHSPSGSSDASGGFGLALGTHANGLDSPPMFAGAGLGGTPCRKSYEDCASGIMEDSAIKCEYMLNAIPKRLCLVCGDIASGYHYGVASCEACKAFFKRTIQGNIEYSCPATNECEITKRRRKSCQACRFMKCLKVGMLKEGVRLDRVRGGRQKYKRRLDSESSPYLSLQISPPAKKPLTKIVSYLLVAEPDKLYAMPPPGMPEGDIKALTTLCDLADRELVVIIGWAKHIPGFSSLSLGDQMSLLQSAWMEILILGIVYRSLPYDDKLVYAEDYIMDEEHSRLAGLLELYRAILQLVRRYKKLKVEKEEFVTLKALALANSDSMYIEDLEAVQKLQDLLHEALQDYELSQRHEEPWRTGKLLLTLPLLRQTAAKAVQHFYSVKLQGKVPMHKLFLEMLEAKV
UniProt Q9H8W3: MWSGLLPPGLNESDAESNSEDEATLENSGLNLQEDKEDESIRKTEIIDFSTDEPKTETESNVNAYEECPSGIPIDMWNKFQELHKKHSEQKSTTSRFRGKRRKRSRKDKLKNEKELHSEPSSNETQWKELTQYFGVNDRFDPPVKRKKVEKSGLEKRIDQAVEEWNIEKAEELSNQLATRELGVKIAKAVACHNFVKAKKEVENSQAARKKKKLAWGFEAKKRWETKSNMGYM
UniProt Q9NVM1: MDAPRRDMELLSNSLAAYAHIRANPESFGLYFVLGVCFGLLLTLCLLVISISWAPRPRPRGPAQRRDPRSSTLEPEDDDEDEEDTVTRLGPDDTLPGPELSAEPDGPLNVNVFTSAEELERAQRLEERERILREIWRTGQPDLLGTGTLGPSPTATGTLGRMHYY
UniProt Q9NYF3: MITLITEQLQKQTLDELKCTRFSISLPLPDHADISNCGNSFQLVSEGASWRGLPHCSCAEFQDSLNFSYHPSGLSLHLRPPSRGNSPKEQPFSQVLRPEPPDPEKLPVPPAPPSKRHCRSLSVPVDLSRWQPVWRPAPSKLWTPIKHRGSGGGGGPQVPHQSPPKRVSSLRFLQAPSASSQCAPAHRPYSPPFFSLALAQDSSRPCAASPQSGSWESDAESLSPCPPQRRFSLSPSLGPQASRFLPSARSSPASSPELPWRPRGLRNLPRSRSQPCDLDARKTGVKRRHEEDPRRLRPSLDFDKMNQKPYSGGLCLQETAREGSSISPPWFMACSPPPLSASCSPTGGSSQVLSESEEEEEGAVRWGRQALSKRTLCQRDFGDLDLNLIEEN
UniProt Q9NY74: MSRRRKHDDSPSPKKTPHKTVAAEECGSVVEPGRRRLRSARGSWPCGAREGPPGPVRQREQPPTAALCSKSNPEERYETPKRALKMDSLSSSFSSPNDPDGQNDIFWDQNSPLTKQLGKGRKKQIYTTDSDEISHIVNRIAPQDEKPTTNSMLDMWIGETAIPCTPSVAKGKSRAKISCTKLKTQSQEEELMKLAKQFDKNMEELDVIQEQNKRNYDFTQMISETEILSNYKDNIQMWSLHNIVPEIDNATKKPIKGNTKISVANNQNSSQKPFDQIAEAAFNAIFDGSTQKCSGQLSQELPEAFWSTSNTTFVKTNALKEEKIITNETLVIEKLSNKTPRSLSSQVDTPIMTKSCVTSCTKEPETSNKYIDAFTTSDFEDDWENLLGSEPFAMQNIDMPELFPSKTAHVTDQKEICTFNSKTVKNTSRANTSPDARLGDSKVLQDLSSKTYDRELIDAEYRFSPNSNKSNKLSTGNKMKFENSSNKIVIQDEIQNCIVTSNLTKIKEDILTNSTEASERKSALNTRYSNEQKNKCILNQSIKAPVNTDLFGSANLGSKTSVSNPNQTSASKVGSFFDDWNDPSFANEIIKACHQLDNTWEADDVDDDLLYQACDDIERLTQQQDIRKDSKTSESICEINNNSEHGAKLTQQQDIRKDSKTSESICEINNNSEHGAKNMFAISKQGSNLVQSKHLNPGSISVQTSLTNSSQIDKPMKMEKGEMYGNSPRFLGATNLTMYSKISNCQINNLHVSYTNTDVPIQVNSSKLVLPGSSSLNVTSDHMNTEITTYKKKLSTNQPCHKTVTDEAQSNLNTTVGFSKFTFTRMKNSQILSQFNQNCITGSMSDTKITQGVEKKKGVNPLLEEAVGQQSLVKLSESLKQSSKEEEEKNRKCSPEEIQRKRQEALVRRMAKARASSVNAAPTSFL
UniProt Q9Y2D4: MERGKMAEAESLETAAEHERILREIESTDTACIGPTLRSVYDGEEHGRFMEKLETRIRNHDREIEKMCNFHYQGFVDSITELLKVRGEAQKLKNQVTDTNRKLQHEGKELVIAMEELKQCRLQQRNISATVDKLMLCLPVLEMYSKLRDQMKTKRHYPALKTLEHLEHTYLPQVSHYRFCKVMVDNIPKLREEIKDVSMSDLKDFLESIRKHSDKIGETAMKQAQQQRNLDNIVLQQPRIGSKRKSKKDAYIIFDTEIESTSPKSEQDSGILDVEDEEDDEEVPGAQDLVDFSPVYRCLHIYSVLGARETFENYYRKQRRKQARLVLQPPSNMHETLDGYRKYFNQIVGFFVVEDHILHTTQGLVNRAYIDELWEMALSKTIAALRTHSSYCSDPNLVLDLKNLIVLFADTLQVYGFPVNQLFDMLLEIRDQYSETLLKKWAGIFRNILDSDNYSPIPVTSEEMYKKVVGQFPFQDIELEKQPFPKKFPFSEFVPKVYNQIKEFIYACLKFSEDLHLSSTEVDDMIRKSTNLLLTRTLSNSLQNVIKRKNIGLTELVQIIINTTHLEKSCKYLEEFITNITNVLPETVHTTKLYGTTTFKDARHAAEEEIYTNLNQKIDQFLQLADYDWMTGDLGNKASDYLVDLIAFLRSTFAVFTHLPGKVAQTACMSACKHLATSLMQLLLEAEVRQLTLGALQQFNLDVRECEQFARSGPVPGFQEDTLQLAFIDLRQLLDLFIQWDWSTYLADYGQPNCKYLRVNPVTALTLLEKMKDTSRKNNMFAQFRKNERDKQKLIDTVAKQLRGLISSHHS
UniProt P41161: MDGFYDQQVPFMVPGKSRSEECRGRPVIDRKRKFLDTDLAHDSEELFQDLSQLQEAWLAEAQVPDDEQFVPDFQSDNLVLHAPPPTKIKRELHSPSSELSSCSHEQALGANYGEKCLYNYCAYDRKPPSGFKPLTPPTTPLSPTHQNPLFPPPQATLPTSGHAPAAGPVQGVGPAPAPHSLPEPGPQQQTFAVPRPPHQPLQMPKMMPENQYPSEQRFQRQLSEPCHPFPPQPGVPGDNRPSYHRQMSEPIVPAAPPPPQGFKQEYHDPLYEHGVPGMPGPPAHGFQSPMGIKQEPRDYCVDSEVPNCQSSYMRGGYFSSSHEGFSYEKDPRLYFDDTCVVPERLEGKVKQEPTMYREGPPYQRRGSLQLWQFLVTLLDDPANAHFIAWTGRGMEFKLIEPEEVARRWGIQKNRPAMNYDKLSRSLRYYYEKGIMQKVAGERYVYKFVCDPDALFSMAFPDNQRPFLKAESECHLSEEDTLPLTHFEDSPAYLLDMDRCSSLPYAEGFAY

Some of the results follow.

Compound in one test: C1=CC=C(C=C1)C2=NC(=C(N2)C3=CC=NC=C3)C4=CC(=C(C=C4)Cl)O
As to the kind of experiment: log2 fold change, soluble protein after heating vs DMSO (PISA); higher = thermal stabilisation; K562 lysate, 10 uM; active = over 0.2 and 3.5 SD of the protein, either way, in both replicates (recomputed). A digest of the protocol: (§1)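 K562 pellets were dounce-homogenised in PBS pH 7.4 with 1 mM MgCl2, and the crude extract at 1 mg/mL protein was treated with 10 μM compound for 30 min. Aliquots were heated for 3 min across 48°C-58°C, pooled, and brought to 0.5% NP-40 at 4°C; soluble protein was the supernatant after 21,000xg for 90 min. Soluble protein was quantified by TMTpro 16plex LC-MS/MS with channel sums equalised, and reported as log2 fold change in thermal stability against DMSO controls, with values from duplicates.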
For the target ETV3 (UniProt P41162), the log2 fold change is inactive: 0.093.

As to FAM219A (UniProt Q8IW50), the log2 fold change was inactive: -0.067.

As for EWSR1 (UniProt H7BY36), the log2 fold change is inactive: -0.208.

For FAM135A (UniProt Q9P2D6), the log2 fold change was inactive: 0.095.

Turning to FAH isoform 2 (UniProt P16930), the log2 fold change was inactive: 0.096.

As to FAM72C (UniProt H0Y354), the log2 fold change is inactive: -0.116.

Take ETV1 (UniProt P50549): the log2 fold change was inactive: 0.029.

In the case of FAM234B (UniProt A2RU67), the log2 fold change was inactive: -0.062.

As for FAM104A isoform 2 (UniProt Q969W3), the log2 fold change is inactive: -0.144.

For ESCO2 (UniProt Q56NI9), the log2 fold change is inactive: 0.12.

Regarding FAM171A1 (UniProt Q5VUB5), the log2 fold change was inactive: -0.005.

On to ETV6 (UniProt P41212), for which the log2 fold change is inactive: -0.063.

Take ESPN (UniProt B1AK53): the log2 fold change was inactive: -0.078.

For the target FAM49B, A0A1W2PRQ0, the log2 fold change is inactive: -0.274.

Turning to EXTL3 (UniProt O43909), the log2 fold change is inactive: -0.022.

In the case of ESRRB isoform 1 (UniProt O95718), the log2 fold change was inactive: 0.016.

With FAM120A, A0A494C0Y9, the log2 fold change was inactive: -0.166.

In the case of EXO5 (UniProt Q9H790), the log2 fold change was inactive: 0.085.

Consider FAM3A (UniProt Q9BU27), for which the log2 fold change is inactive: 0.064.

With FAM13A (UniProt O94988), the log2 fold change was inactive: -0.155.

As for FAM204A (UniProt Q9H8W3), the log2 fold change was inactive: 0.018.

Turning to FAM122B isoform 2 (UniProt Q7Z309), the log2 fold change was inactive: 0.029.

As for EVA1B (UniProt Q9NVM1), the log2 fold change was inactive: -0.291.

Regarding F2 (UniProt P00734), the log2 fold change is inactive: 0.108.

FAM53C (UniProt Q9NYF3): the log2 fold change is inactive: -0.024.

Compound in a further test: C1=CC=C2C(=C1)C3=NNC4=CC=CC(=C43)C2=O
Described as above. A digest of the protocol:
as §1
Consider EWSR1 (UniProt H7BY36), for which the log2 fold change is inactive: -0.428.

FAH isoform 2 (UniProt P16930): the log2 fold change was inactive: -0.146.

Turning to FAM72C (UniProt H0Y354), the log2 fold change was inactive: 0.059.

For the target ETAA1 (UniProt Q9NY74), the log2 fold change is inactive: -0.389.

Regarding ETV6 (UniProt P41212), the log2 fold change was inactive: -0.012.

As to FAM49B, A0A1W2PRQ0, the log2 fold change was inactive: 0.

With EXTL3 (UniProt O43909), the log2 fold change was inactive: -0.197.

As to FAM204A (UniProt Q9H8W3), the log2 fold change is inactive: -0.008.

FAM193B (UniProt Q96PV7): the log2 fold change was inactive: -0.108.

For EXOC6B (UniProt Q9Y2D4), the log2 fold change was inactive: 0.

With ETV5 isoform 2 (UniProt P41161), the log2 fold change was inactive: -0.016.

Compound in a further test: C1CCN(C1)C(=O)NC2=CC=CC(=C2)NC3=NC=C(C(=N3)NCCC4=CN=CN4)Br
The test is described as above. A digest of the protocol: as §1
ETV3 (UniProt P41162): the log2 fold change was inactive: -0.051.

With FAM219A (UniProt Q8IW50), the log2 fold change was inactive: 0.027.

As to EWSR1 (UniProt H7BY36), the log2 fold change is inactive: -0.011.

In the case of FAH isoform 2 (UniProt P16930), the log2 fold change is inactive: -0.212.

In the case of ERN1 (UniProt O75460), the log2 fold change was inactive: 0.019.

For the target ERV3-1 (UniProt Q14264), the log2 fold change is inactive: 0.146.

In the case of ESCO2 (UniProt Q56NI9), the log2 fold change is inactive: 0.145.

For the target ETAA1 (UniProt Q9NY74), the log2 fold change is inactive: -0.268.

In the case of ETV6 (UniProt P41212), the log2 fold change is inactive: -0.054.

Regarding ESPN (UniProt B1AK53), the log2 fold change is inactive: -0.018.

FAM49B, A0A1W2PRQ0: the log2 fold change is inactive: -0.111.

For the target EXOC6B (UniProt Q9Y2D4), the log2 fold change was inactive: -0.058.

Turning to EXOC3L2, A0A1C7CYX0, the log2 fold change is inactive: -0.053.

As for FAM178B (UniProt Q8IXR5), the log2 fold change was inactive: -0.083.

As for F2 (UniProt P00734), the log2 fold change is inactive: -0.005.

Take ETV5 isoform 2 (UniProt P41161): the log2 fold change is inactive: 0.099.

For FAM53C (UniProt Q9NYF3), the log2 fold change was inactive: -0.008.

Compound in the next test: C1CN(CCC1(CC2=CC=C(C=C2)Cl)N)C3=NC=NC4=C3C=CN4
Described as above. A digest of the protocol:
as §1
As for ETV3 (UniProt P41162), the log2 fold change was inactive: -0.054.

In the case of FAM219A (UniProt Q8IW50), the log2 fold change was inactive: 0.251.

With EWSR1 (UniProt H7BY36), the log2 fold change was inactive: -0.035.

As to FAH isoform 2 (UniProt P16930), the log2 fold change is inactive: -0.072.

On to ERN1 (UniProt O75460), for which the log2 fold change was inactive: -0.016.

As to ERV3-1 (UniProt Q14264), the log2 fold change was inactive: 0.037.

Take ESCO2 (UniProt Q56NI9): the log2 fold change was inactive: 0.085.

As to ETAA1 (UniProt Q9NY74), the log2 fold change is inactive: 0.375.

As to ETV6 (UniProt P41212), the log2 fold change is inactive: 0.034.

With ESPN (UniProt B1AK53), the log2 fold change is inactive: 0.037.

As for FAM49B, A0A1W2PRQ0, the log2 fold change was inactive: -0.029.

For EXOC6B (UniProt Q9Y2D4), the log2 fold change is inactive: 0.095.

With EXOC3L2, A0A1C7CYX0, the log2 fold change was inactive: 0.106.

FAM178B (UniProt Q8IXR5): the log2 fold change was inactive: -0.009.

In the case of F2 (UniProt P00734), the log2 fold change is inactive: -0.033.

Turning to ETV5 isoform 2 (UniProt P41161), the log2 fold change is inactive: -0.011.

For FAM53C (UniProt Q9NYF3), the log2 fold change is inactive: 0.072.
